The target in assay [1] is p53 (human (endogenous in H9 hESCs and cells differentiated from them)) (UniProt P04637). The experiment in a line: proximity ligation; Duolink in situ PLA with anti-IFI16 and anti-p53 on fixed differentiated trilineage cells on Day 2; confocal microscopy.
For assay [2] the target is unchanged. The experiment in a line: proximity ligation; Duolink in situ PLA with anti-IFI16 and anti-p53 on fixed undifferentiated H9 hESCs; confocal microscopy.
Assay [3] shares this target. Kind of assay: co-IP; lysates (Pierce IP Lysis Buffer) of undifferentiated H9 hESCs; precipitated with p53 or IFI16 antibodies at 4 °C overnight, protein A/G magnetic beads; immunoblot. For orientation: A western blot detects proteins with antibodies after separation by electrophoresis.
Assay [4] has the same target. The experiment in a line: co-IP; lysates (Pierce IP Lysis Buffer) of differentiated trilineage cells (endoderm, mesoderm, ectoderm) on Day 2; precipitated with p53 or IFI16 antibodies at 4 °C overnight, protein A/G magnetic beads; immunoblot.
The target of assay [5] is gamma-interferon-inducible protein 16 (IFI16) (human (endogenous in H9 hESCs and cells differentiated from them)) (UniProt Q16666). Kind of assay: co-IP; lysates (Pierce IP Lysis Buffer) of undifferentiated H9 hESCs; precipitated with p53 or IFI16 antibodies at 4 °C overnight, protein A/G magnetic beads; immunoblot.
For assay [6] the target is unchanged. Kind of assay: co-IP; lysates (Pierce IP Lysis Buffer) of differentiated trilineage cells (endoderm, mesoderm, ectoderm) on Day 2; precipitated with p53 or IFI16 antibodies at 4 °C overnight, protein A/G magnetic beads; immunoblot.

Amino acid sequences for entries named in this document (tags omitted).
UniProt Q16666: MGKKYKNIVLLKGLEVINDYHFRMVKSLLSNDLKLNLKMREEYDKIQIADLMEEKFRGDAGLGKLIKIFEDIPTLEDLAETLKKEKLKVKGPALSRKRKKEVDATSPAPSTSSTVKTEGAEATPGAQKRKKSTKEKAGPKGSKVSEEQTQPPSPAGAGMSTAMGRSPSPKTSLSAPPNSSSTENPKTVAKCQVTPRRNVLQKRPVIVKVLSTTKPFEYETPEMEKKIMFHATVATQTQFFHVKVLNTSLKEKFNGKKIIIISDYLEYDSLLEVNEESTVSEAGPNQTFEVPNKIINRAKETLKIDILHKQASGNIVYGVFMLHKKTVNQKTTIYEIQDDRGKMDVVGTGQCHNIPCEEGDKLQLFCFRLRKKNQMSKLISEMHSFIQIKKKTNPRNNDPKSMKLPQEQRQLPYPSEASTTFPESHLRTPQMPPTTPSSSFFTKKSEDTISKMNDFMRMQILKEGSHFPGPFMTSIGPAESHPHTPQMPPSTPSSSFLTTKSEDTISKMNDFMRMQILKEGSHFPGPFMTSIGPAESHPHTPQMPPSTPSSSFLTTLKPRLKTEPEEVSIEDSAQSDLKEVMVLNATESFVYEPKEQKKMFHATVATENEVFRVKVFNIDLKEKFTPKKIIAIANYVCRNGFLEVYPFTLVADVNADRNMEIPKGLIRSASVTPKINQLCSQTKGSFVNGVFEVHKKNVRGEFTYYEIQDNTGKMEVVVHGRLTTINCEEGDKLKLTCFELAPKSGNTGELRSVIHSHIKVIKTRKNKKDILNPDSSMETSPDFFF

These are yes or no findings as the source states them, for the method shown. Binding seen in cells or lysates may run through a third protein. Some results given as binding are weak or reduced against the parent protein; the word gives no strength.

On to “gamma-interferon-inducible protein 16 (IFI16) (from UniProt Q16666 1-785)”, for which the binding result is on record as “binds” in assay [1], “no binding (condition: in undifferentiated H9 cells)” in assay [2], “binds weakly” in assay [3] and “binds” in assay [4].
In the case of p53 (from UniProt P04637 1-393), the binding entry in assay [5] was “binds weakly”; in assay [6], “binds”.

The values are drawn from paper PMC7596047.
